Results from the supplement of paper PMC10849652.
The list shows a part of the results.

By UniProt entry, the sequences of proteins in these tests, tags left out. Where a name states a change or a piece, a line headed by the entry shows the natural chain unless it says otherwise.
UniProt P22061: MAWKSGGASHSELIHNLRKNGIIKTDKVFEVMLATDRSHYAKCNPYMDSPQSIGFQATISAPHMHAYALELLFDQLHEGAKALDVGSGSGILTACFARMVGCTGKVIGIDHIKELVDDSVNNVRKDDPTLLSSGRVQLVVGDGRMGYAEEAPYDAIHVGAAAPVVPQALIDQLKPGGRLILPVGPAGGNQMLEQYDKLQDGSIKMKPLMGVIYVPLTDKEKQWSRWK
UniProt Q9H0J9: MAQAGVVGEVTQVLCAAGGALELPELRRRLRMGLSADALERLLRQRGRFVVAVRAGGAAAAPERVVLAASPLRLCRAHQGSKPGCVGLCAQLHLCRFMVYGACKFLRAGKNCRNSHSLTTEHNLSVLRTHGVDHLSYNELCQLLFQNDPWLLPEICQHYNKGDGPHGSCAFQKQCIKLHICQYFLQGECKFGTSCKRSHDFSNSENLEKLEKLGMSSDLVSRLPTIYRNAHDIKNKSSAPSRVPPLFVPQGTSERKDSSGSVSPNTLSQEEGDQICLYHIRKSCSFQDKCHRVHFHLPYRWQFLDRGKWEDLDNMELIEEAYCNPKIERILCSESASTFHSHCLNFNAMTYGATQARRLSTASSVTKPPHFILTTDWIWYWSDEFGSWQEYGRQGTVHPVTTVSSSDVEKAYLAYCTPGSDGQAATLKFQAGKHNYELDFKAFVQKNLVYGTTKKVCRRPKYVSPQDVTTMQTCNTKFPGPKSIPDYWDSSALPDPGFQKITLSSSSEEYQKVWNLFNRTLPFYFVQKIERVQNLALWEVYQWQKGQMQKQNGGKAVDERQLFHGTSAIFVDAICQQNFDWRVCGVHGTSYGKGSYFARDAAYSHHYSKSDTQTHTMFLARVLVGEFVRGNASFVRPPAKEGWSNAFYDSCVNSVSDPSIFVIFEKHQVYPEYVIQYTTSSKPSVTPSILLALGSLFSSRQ
UniProt Q9Y6V0: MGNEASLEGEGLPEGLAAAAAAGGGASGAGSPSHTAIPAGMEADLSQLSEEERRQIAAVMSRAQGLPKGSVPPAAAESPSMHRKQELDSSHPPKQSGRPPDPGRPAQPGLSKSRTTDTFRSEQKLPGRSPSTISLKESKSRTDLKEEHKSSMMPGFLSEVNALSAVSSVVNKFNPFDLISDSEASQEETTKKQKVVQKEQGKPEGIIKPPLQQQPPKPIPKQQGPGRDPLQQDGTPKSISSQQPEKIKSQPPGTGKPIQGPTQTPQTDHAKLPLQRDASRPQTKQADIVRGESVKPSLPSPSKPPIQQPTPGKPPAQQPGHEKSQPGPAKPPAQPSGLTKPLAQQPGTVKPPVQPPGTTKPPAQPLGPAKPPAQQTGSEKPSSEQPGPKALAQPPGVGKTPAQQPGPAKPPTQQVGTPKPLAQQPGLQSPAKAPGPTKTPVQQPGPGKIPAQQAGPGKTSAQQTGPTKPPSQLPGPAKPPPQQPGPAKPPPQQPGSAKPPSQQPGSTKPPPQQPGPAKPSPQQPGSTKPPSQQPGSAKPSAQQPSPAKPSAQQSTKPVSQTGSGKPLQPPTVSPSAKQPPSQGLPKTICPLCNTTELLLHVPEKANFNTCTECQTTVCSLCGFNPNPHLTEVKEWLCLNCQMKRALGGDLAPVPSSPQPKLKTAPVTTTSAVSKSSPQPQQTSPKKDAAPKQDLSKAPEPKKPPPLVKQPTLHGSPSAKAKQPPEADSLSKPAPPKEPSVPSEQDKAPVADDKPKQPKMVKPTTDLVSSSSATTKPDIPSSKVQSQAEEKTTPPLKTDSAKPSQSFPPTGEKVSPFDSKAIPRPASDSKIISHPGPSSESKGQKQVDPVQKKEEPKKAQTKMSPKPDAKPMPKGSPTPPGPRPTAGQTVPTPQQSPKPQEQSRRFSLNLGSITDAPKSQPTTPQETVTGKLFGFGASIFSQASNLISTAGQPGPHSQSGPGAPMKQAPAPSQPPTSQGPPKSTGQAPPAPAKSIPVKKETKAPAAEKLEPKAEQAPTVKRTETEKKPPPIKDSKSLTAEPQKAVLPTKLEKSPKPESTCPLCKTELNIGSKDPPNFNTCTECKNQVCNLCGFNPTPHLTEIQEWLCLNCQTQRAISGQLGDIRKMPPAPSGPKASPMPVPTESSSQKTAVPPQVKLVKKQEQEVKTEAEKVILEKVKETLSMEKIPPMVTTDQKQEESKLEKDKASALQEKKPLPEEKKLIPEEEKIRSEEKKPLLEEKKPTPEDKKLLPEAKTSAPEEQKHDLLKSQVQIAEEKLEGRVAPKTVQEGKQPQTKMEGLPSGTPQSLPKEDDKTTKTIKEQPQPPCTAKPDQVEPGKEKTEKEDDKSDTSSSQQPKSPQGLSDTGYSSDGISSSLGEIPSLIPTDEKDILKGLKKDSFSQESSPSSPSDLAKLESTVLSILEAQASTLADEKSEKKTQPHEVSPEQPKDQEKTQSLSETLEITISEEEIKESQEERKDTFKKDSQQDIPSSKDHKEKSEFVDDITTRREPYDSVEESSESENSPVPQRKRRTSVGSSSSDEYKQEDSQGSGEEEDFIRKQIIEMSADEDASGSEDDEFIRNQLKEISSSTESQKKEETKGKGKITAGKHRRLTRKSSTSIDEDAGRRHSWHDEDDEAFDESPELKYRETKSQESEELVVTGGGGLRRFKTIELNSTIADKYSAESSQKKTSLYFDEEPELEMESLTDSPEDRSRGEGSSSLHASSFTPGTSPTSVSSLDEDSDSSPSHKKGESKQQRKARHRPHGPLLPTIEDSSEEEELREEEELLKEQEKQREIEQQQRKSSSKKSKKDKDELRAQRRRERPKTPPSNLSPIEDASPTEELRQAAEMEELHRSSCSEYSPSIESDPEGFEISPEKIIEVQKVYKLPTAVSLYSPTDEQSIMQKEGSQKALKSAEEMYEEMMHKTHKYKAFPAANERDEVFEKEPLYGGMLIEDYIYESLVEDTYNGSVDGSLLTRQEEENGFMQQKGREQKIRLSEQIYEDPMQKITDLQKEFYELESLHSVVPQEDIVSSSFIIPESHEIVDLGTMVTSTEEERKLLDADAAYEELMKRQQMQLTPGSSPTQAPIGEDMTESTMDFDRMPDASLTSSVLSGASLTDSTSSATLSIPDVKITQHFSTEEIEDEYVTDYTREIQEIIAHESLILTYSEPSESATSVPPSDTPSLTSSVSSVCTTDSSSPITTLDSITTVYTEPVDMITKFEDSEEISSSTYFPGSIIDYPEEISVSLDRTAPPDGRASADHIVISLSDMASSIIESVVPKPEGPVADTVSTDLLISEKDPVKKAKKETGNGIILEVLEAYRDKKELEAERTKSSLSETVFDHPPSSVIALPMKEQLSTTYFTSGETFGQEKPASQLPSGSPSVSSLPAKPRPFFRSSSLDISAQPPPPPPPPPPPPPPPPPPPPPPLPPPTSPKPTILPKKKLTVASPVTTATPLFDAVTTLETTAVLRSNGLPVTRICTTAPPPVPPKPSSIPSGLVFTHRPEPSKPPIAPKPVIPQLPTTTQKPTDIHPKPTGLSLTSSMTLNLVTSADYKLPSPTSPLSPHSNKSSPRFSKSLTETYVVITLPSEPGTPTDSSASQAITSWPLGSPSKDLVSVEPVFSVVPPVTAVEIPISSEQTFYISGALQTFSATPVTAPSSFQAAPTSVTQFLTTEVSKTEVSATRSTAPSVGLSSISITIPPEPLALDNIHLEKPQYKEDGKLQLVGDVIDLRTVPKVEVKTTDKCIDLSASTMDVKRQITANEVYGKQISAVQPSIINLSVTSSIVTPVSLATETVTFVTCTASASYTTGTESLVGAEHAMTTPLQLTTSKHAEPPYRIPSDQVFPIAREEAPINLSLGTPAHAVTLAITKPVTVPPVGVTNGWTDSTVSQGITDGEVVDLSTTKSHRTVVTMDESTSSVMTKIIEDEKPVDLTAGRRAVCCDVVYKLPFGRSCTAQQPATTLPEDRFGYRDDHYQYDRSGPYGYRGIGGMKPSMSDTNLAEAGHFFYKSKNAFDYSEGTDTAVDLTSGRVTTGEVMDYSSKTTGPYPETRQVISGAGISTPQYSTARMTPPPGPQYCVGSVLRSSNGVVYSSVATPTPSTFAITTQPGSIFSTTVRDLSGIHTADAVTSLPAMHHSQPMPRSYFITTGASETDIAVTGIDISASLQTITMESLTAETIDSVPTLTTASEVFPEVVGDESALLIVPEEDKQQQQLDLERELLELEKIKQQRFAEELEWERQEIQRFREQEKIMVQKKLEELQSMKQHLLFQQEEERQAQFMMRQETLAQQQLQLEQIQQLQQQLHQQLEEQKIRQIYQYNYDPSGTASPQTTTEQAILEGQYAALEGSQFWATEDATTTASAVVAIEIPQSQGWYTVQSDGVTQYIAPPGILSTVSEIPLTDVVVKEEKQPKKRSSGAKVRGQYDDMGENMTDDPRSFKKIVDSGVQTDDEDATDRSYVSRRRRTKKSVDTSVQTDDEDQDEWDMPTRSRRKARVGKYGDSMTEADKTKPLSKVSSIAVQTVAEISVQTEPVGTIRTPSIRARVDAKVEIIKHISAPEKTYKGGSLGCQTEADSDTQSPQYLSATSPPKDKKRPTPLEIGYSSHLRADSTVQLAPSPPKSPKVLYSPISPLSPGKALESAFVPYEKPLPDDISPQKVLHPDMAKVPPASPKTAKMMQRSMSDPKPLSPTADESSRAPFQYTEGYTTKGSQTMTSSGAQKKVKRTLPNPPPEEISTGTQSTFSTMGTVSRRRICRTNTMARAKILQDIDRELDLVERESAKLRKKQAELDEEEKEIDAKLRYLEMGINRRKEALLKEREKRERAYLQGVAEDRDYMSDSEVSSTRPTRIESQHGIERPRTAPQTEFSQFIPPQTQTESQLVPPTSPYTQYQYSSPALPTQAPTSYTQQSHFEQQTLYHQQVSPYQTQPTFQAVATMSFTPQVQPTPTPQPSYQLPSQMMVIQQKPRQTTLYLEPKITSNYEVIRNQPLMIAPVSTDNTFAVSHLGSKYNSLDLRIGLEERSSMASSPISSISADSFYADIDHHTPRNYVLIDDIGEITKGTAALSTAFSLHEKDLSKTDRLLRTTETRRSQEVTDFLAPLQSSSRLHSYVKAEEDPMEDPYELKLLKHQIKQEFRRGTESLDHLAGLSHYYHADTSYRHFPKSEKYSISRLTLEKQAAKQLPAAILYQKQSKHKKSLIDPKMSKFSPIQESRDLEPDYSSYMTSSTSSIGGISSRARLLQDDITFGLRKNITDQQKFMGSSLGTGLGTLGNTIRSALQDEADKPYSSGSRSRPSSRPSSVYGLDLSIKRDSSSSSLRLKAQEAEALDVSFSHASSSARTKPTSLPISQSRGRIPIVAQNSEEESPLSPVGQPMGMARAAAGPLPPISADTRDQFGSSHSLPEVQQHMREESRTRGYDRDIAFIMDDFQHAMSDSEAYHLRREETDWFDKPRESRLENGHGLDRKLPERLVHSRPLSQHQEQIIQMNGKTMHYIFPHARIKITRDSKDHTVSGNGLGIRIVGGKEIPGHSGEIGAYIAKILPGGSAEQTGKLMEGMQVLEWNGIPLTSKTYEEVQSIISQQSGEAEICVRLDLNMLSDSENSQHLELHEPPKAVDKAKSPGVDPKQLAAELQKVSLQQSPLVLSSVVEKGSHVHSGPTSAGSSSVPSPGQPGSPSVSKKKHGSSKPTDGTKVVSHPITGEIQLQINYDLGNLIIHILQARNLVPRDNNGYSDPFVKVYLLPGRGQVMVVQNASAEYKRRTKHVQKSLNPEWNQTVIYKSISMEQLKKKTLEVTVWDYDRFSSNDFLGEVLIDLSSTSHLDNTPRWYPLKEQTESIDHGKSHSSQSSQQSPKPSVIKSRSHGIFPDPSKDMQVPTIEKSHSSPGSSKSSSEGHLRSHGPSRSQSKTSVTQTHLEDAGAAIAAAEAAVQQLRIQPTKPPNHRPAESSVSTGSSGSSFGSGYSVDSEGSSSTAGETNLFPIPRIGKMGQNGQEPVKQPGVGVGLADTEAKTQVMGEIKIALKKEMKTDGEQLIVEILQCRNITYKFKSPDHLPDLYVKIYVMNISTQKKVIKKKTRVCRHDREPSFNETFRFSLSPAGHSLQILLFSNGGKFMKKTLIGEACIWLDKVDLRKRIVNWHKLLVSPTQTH
UniProt O75340: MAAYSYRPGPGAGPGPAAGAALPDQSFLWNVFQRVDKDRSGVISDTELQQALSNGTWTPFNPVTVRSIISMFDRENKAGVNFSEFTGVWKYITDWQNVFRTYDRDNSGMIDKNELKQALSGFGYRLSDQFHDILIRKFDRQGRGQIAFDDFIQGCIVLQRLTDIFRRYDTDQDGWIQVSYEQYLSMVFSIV
UniProt O00764: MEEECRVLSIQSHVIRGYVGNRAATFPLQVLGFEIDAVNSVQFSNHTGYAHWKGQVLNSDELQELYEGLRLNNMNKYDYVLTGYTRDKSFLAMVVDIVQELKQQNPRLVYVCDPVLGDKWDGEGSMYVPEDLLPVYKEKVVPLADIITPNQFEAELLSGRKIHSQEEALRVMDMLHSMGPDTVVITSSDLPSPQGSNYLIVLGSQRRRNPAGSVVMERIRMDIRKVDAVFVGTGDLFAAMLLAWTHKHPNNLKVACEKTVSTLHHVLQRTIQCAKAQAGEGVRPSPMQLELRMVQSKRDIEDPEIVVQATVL

Legend:
Assay in all cases: log2 fold change, soluble protein after heating vs DMSO (PISA); higher = thermal stabilisation; K562 lysate, 10 uM; active = over 0.2 and 3.5 SD of the protein, either way, in both replicates (recomputed)
[1] = compound: C=CC(=O)N1CCC[C@@H](n2nc(-c3ccc(Oc4ccccc4)cc3)c3c(N)ncnc32)C1 [ibrutinib]
Outline: (§1)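 Pellets of K562 cells were dounce-homogenised in PBS pH 7.4 with 1 mM MgCl2, and the crude extract was held at 1 mg/mL protein for a 30 min treatment with 10 μM compound. Aliquots were heated for 3 min over 48°C-58°C and pooled before NP-40 was added to 0.5% at 4°C. The supernatant from 21,000xg for 90 min was quantified by TMTpro 16plex LC-MS/MS with channel sums equalised. Values are reported from duplicates as log-two fold change in thermal stability relative to solvent controls.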

[2] = compound: CC(=O)c1cnc2ccc(-c3cc(Cl)c(O)c(Cl)c3)nc2c1N[C@H]1CC[C@H](CN(C)C)CC1
Outline: as §1

[3] = compound: CC(C)(C)Cn1c(N)nc2ccc(-c3[nH]c(C(C)(C)C)nc3-c3ccc(F)cc3)nc21 [ralimetinib]
Outline: as §1

[4] = compound: CC(C)(O)CC(=O)NCCn1ccc2ncnc(Nc3ccc(Oc4cccc(C(F)(F)F)c4)c(Cl)c3)c21
Outline: as §1

[5] = compound: CC(C)C1=C2N=C(C=C(N2N=C1)NCC3=CC=CC=C3)NCCCCCCN
Outline: as §1

[6] = compound: CC1=C(C(CC(=O)N1)C2=CC=C(C=C2)C(F)(F)F)C(=O)NC3=C(C=C4C(=C3)C=NN4)F
Outline: as §1

[7] = compound: CC1=C(C2=C(C=C1)C(=O)C3=CC=CC=C3N2CCCN)C
Outline: as §1

[8] = compound: CC1=C(C=C(C=C1)NC(=O)C2=CC(=CC=C2)C(C)(C)C#N)NC3=CC4=C(C=C3)N=CN(C4=O)C
Outline: as §1

[9] = compound: CC1=C(C=C(C=C1)NC(=O)C2=CC(=CC=C2)N(C)C)NC(=O)C3=CC=C(C=C3)O
Outline: as §1

[10] = compound: CC1=CC=C(C=C1)SC2=C3C=C(SC3=CN=C2)C(=O)N
Outline: as §1

Measured: log2 fold change

PCNP (UniProt Q8WW12)
inactive: [1] 0.014 | [2] -0.009 | [3] 0.012 | [4] -0.031 | [5] 0.01 | [6] -0.021 | [7] 0.019 | [8] -0.021 | [9] 0.005 | [10] -0.023

PDZD8 (UniProt Q8NEN9)
inactive: [1] -0.047 | [2] -0.001 | [3] 0.011 | [4] -0.008 | [5] -0.013 | [6] 0.059 | [7] -0.064 | [8] -0.027 | [9] 0.002 | [10] -0.02

PEX2 (UniProt P28328)
inactive: [1] 0.017 | [2] -0.114 | [3] 0.021 | [4] -0.098 | [5] 0.023 | [6] 0.14 | [7] -0.07 | [8] -0.002 | [9] 0.065 | [10] 0.035

PCF11 (UniProt O94913)
inactive: [1] -0.027 | [2] -0.006 | [3] -0.005 | [4] -0.02 | [5] 0.022 | [6] 0.03 | [7] -0.02 | [8] -0.021 | [9] 0.045 | [10] -0.02

PDS5A (UniProt Q29RF7)
inactive: [1] 0 | [2] 0.013 | [3] 0.008 | [4] -0.017 | [5] -0.029 | [6] 0.023 | [7] -0.038 | [8] 0.017 | [9] 0.031 | [10] 0.039

PCMT1 isoform 2 (UniProt P22061)
inactive: [1] 0.052 | [2] -0.002 | [3] -0.019 | [4] 0.052 | [5] 0.005 | [6] -0.018 | [7] 0.016 | [8] -0.031 | [9] -0.008 | [10] 0

Copied from above (two entries):
PCF11 (UniProt O94913)
inactive: [1] -0.027 | [2] -0.006 | [3] -0.005 | [4] -0.02 | [5] 0.022 | [6] 0.03 | [7] -0.02 | [8] -0.021 | [9] 0.045 | [10] -0.02

PDS5A (UniProt Q29RF7)
inactive: [1] 0 | [2] 0.013 | [3] 0.008 | [4] -0.017 | [5] -0.029 | [6] 0.023 | [7] -0.038 | [8] 0.017 | [9] 0.031 | [10] 0.039

Additional records

PDSS2 (UniProt Q86YH6)
inactive: [1] -0.027 | [2] -0.067 | [3] 0.056 | [4] 0.001 | [5] -0.01 | [6] -0.005 | [7] -0.012 | [8] 0.04 | [9] -0.048 | [10] 0.018

PFKFB2 (UniProt O60825)
inactive: [1] -0.007 | [2] -0.014 | [3] 0.035 | [4] -0.017 | [5] -0.016 | [6] 0.006 | [7] -0.001 | [8] -0.013 | [9] -0.011 | [10] -0.001

PCIF1 (UniProt Q9H4Z3)
inactive: [1] 0.019 | [2] 0.019 | [3] 0.091 | [4] 0.017 | [5] 0 | [6] 0.002 | [7] 0.037 | [8] -0.033 | [9] 0.025 | [10] -0.029

PFKFB1 (UniProt P16118)
inactive: [1] 0.046 | [2] -0.119 | [3] 0 | [4] 0.013 | [5] -0.044 | [7] -0.06 | [9] -0.018 | [10] -0.23

PDE6D (UniProt O43924)
inactive: [1] -0.128 | [2] -0.084 | [3] 0.04 | [4] 0.008 | [5] 0.038 | [6] -0.154 | [7] -0.068 | [9] 0.055 | [10] 0.025

PARP12 (UniProt Q9H0J9)
inactive: [1] -0.043 | [2] -0.076 | [3] 0.017 | [4] -0.072 | [5] 0.003 | [7] 0.022 | [8] -0.235 | [9] -0.069 | [10] 0.047

PCNA (UniProt P12004)
inactive: [1] -0.017 | [2] 0.005 | [3] -0.016 | [4] 0.023 | [5] -0.032 | [6] -0.043 | [7] -0.001 | [8] -0.019 | [9] -0.015 | [10] 0.019

PDE12 (UniProt Q6L8Q7)
inactive: [1] -0.007 | [2] -0.001 | [3] 0 | [4] 0.02 | [5] 0 | [6] -0.022 | [7] 0.011 | [8] 0.002 | [9] -0.05 | [10] -0.02

PDHX (UniProt O00330)
inactive: [1] 0.005 | [2] 0.004 | [3] -0.013 | [4] -0.009 | [5] 0.007 | [6] 0.014 | [7] 0 | [8] 0.044 | [9] -0.016 | [10] 0.023

PCCB (UniProt P05166)
inactive: [1] -0.014 | [2] -0.004 | [3] -0.018 | [4] -0.017 | [5] -0.028 | [6] -0.005 | [7] 0.023 | [8] 0.012 | [9] -0.003 | [10] -0.012

PDCD6IP (UniProt Q8WUM4)
inactive: [1] -0.056 | [2] 0.042 | [3] -0.066 | [4] -0.004 | [5] 0.078 | [6] 0.009 | [7] 0.004 | [8] -0.037 | [9] 0.02 | [10] -0.03

PGAM5 (UniProt Q96HS1)
inactive: [1] 0.046 | [2] 0.01 | [3] 0.015 | [4] -0.043 | [5] 0.011 | [6] -0.015 | [7] 0.009 | [8] 0.032 | [9] 0.036 | [10] 0.016

PDIA6 isoform 2 (UniProt Q15084)
inactive: [1] -0.022 | [2] -0.027 | [3] -0.049 | [4] -0.01 | [5] -0.012 | [6] -0.028 | [7] -0.011 | [8] -0.028 | [9] 0.018 | [10] -0.024

PCLO (UniProt Q9Y6V0)
inactive: [1] 0.001 | [2] -0.033 | [3] -0.038 | [4] -0.137 | [5] 0.017 | [6] -0.06 | [7] -0.076 | [8] 0.184 | [9] -0.014 | [10] -0.031

PFDN6 (UniProt O15212)
inactive: [1] 0.187 | [2] 0.013 | [3] -0.001 | [4] 0.024 | [5] 0.038 | [6] -0.023 | [7] -0.02 | [8] 0.078 | [9] -0.006 | [10] 0.027

PFKFB3 isoform 4 (UniProt Q16875)
inactive: [1] -0.015 | [2] 0.11 | [3] 0.044 | [4] -0.003 | [5] 0 | [6] 0.027 | [7] 0.003 | [8] 0.011 | [9] -0.019 | [10] 0.148

PDCD6 (UniProt O75340)
inactive: [1] 0.024 | [2] 0.019 | [3] -0.014 | [4] -0.036 | [5] 0.008 | [6] -0.002 | [7] 0.009 | [8] -0.047 | [9] 0.011 | [10] 0.002

PARP9 (UniProt Q8IXQ6)
inactive: [1] -0.2 | [2] -0.215 | [3] 0.04 | [4] -0.162 | [5] 0.121 | [7] 0.083 | [8] 0.136 | [9] -0.021 | [10] -0.131

PDK1 (UniProt Q15118)
inactive: [1] -0.016 | [2] 0.032 | [3] -0.024 | [4] -0.013 | [5] -0.024 | [7] -0.058 | [8] -0.173 | [9] 0.008 | [10] -0.027

PCYT2 isoform 3 (UniProt Q99447)
inactive: [1] -0.058 | [2] 0.003 | [3] 0.046 | [4] -0.007 | [5] 0.006 | [6] 0.009 | [7] -0.016 | [8] 0.007 | [9] 0.009 | [10] 0.029

PCK2 (UniProt Q16822)
inactive: [1] -0.004 | [2] 0.009 | [3] -0.01 | [4] -0.019 | [5] -0.009 | [6] -0.026 | [7] -0.019 | [8] 0.024 | [9] 0.064 | [10] -0.003

PFKFB4 (UniProt Q16877)
inactive: [1] 0.022 | [2] -0.005 | [3] 0.1 | [4] -0.032 | [5] -0.004 | [7] -0.008 | [8] -0.003 | [9] 0.093 | [10] 0.011

PDCL3 (UniProt Q9H2J4)
inactive: [1] -0.009 | [2] -0.008 | [3] -0.009 | [4] -0.018 | [5] -0.017 | [6] -0.017 | [7] -0.027 | [8] -0.016 | [9] -0.002 | [10] -0.005

PDXK (UniProt O00764)
inactive: [1] 0.007 | [2] 0.014 | [3] 0.01 | [4] -0.006 | [5] -0.009 | [6] 0.017 | [7] -0.058 | [8] 0.016 | [9] -0.029 | [10] -0.001
